From the supplement of paper PMC10849652
The other results are listed elsewhere or left out.

By UniProt entry, the sequences of proteins in these tests, tags left out. Where a name states a change or a piece, a line headed by the entry shows the natural chain unless it says otherwise.
UniProt P53007, whole entry, looked up: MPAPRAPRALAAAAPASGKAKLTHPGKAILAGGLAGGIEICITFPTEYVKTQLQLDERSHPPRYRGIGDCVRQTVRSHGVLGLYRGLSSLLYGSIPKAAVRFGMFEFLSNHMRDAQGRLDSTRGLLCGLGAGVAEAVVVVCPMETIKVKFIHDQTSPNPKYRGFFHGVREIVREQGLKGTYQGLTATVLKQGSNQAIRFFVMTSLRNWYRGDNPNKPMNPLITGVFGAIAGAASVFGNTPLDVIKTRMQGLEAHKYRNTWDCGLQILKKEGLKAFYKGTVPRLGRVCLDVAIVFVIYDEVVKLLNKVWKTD
UniProt P08195: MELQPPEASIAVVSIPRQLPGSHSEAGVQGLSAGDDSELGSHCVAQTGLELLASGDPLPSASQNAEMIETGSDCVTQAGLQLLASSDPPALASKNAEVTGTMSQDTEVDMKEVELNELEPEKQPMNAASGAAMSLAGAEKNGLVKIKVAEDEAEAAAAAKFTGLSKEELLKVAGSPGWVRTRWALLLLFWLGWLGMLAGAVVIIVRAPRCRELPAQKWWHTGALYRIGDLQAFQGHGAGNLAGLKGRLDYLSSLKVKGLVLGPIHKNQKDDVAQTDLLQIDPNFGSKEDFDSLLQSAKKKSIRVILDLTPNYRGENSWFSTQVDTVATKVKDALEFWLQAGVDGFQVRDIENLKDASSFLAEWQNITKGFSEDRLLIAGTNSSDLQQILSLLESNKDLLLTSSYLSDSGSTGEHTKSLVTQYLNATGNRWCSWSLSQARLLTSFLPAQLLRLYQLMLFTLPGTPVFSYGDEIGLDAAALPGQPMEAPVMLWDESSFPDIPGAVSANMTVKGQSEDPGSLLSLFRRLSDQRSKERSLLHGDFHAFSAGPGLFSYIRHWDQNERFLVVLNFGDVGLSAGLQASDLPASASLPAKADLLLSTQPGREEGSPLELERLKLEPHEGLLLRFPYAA
UniProt Q96AG3: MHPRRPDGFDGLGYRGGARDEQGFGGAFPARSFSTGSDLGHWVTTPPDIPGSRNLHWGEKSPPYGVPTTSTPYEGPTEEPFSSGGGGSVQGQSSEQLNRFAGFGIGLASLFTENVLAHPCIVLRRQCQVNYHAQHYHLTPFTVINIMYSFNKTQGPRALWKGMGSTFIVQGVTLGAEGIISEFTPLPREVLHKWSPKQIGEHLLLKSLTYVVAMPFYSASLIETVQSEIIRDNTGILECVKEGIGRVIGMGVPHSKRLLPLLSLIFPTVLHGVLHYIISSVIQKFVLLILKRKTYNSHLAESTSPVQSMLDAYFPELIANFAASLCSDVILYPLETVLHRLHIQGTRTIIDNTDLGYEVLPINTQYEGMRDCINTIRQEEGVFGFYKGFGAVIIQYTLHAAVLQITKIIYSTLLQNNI
UniProt Q8IXU6: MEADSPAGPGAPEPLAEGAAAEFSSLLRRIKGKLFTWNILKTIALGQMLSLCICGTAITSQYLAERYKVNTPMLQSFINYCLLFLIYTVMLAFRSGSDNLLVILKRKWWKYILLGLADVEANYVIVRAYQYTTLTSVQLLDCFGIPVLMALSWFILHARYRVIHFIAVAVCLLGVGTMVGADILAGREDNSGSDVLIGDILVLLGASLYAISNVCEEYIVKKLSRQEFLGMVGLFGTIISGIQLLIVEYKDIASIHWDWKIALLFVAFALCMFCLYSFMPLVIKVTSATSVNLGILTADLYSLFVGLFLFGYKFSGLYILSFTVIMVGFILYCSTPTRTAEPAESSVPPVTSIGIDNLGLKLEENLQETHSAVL
UniProt Q96DW6: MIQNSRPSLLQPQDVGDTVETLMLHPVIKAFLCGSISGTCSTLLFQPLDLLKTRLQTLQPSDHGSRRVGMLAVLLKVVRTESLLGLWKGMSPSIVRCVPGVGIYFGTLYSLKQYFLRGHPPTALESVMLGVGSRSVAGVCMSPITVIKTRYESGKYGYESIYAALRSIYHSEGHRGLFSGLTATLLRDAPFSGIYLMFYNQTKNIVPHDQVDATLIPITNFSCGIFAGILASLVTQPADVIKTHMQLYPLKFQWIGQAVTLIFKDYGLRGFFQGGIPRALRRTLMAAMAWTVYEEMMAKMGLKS
UniProt Q14493, whole entry, looked up: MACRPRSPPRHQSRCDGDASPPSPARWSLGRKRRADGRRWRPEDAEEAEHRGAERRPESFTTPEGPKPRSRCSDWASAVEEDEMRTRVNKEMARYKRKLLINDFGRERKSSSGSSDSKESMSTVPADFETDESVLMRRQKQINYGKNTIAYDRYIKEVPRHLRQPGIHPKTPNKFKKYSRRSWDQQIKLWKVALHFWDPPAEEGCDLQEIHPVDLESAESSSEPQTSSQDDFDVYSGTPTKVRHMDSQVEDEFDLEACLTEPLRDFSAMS
UniProt Q9BQT8: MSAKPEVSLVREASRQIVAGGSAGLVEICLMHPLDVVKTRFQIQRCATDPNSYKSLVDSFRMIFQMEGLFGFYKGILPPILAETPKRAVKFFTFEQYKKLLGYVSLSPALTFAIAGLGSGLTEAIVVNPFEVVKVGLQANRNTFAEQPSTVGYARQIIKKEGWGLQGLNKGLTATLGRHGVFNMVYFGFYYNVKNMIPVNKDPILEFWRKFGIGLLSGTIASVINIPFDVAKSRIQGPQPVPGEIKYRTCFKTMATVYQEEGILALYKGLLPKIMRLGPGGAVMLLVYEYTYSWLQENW
UniProt Q9NP59: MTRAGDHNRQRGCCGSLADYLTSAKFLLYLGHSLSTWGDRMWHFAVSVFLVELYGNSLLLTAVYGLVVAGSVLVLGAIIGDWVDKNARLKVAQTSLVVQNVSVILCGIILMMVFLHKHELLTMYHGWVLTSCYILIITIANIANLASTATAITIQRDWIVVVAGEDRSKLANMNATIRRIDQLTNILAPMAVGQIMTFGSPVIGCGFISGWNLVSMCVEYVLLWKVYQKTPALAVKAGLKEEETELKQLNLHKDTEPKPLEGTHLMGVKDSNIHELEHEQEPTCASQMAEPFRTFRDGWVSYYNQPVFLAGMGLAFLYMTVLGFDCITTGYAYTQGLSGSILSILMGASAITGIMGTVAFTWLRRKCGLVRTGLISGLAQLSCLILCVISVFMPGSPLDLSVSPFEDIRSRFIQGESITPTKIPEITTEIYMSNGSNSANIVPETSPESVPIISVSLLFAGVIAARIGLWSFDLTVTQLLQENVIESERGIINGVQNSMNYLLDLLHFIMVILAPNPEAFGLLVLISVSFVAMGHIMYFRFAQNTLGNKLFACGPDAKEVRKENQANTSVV
UniProt Q08357: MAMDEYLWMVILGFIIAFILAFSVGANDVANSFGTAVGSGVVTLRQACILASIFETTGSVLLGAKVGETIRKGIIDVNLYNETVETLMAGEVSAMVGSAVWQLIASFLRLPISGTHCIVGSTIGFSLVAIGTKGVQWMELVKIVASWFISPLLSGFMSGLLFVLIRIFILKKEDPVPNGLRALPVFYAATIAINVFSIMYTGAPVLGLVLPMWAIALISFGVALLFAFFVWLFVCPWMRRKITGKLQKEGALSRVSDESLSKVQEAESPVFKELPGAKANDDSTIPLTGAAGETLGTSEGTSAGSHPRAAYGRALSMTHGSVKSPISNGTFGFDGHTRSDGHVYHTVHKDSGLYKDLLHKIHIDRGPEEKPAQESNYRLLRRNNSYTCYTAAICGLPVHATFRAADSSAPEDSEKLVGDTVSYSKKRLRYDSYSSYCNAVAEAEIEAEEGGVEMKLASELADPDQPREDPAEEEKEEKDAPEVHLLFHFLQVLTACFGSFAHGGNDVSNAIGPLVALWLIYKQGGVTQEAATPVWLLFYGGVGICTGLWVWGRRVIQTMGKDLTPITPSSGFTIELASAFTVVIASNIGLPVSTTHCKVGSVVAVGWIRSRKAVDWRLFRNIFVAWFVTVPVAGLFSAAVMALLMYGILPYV
UniProt Q9BXP2: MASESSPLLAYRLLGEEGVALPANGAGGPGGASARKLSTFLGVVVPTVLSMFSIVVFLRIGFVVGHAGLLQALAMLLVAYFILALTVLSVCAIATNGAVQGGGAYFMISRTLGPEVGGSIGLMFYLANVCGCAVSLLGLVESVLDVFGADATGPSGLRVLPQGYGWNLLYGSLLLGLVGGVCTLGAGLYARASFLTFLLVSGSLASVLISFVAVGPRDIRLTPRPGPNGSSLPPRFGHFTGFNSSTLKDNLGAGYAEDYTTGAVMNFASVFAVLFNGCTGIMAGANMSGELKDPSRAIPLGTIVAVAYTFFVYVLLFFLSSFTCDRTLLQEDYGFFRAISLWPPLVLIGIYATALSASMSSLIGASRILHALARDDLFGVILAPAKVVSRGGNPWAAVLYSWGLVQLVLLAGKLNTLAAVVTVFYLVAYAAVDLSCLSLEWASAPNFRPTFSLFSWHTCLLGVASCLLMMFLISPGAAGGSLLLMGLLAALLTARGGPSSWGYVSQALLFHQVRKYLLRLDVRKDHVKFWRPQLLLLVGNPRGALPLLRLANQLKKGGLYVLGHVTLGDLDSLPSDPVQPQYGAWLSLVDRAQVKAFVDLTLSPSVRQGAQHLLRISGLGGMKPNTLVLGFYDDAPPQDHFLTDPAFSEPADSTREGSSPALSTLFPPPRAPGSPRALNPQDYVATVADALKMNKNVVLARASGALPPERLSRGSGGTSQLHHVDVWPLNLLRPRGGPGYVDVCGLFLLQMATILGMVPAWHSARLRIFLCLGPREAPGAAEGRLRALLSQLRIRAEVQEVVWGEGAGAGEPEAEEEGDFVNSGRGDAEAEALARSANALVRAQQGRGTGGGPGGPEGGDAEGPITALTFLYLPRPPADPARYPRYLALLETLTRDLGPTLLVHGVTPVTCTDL
UniProt Q9UP95: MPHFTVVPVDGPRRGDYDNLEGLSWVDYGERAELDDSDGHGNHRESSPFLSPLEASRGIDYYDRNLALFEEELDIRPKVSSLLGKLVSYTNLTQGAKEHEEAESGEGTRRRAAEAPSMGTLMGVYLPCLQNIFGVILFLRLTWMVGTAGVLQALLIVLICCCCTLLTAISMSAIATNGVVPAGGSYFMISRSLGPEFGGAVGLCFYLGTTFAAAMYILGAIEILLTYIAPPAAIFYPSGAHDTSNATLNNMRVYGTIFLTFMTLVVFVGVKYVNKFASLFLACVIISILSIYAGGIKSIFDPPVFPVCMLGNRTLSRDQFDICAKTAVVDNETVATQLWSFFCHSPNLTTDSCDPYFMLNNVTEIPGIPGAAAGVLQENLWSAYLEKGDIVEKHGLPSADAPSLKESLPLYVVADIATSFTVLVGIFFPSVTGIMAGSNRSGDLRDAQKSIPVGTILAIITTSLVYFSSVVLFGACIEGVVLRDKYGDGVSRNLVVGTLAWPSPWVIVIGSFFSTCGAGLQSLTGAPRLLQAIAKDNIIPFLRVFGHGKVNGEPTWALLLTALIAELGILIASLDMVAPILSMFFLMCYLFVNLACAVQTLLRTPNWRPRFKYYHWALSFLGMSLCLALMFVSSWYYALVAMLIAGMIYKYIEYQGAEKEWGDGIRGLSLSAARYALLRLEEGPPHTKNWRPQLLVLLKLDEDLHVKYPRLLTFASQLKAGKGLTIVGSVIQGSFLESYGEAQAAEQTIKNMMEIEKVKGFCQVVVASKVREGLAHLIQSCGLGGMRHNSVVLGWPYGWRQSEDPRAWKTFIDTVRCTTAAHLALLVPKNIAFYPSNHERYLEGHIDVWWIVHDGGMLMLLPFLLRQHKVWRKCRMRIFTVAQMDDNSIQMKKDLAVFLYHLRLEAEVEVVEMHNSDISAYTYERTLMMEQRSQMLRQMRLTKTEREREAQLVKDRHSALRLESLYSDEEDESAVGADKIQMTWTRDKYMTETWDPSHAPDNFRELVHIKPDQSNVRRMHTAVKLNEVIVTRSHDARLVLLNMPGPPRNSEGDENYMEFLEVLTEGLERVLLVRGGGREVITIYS
UniProt P53794: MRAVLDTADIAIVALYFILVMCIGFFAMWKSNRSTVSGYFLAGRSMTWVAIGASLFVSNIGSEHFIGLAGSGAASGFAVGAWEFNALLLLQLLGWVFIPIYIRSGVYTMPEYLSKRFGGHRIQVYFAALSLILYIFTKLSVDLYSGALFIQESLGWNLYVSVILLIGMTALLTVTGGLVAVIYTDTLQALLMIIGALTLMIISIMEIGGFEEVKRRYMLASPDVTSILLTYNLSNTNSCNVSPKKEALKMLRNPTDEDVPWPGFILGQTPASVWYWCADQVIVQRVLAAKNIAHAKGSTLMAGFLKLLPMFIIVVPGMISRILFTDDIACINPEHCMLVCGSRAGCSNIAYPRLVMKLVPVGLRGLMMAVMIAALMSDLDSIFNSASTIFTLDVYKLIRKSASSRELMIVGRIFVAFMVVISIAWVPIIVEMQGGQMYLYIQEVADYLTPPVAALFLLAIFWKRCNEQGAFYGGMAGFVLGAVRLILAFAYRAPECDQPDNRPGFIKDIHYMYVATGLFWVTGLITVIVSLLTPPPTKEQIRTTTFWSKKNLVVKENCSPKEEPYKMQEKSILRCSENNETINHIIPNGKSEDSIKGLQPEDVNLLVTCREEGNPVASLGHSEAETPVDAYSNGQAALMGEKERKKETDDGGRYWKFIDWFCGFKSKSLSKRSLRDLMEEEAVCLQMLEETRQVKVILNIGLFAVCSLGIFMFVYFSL

Key:
Assay in all cases: log2 fold change, soluble protein after heating vs DMSO (PISA); higher = thermal stabilisation; K562 cells, 10 uM, 30 min; active = over 0.2 and 3.5 SD of the protein, either way, in both replicates (recomputed)
[1] = compound: CS(=O)(=O)c1ccc(-c2cnc(N)c(C(=O)Nc3ccccc3)n2)cc1
In short: (§1)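 K562 cells at 2×10^6 cells/mL were exposed to 10 μM compound for 30 min, then aliquots were heated for 3 min across 48°C-58°C, pooled, and extracted in PBS containing 0.5% NP-40 at 4°C. The supernatant after 21,000xg for 90 min was taken as soluble protein and measured by TMTpro 16plex LC-MS/MS with channel sums equalised. Thermal stability is reported relative to control samples, with values from duplicates. Fold changes are given on a log2 scale.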

crizotinib = compound: C[C@@H](Oc1cc(-c2cnn(C3CCNCC3)c2)cnc1N)c1c(Cl)ccc(F)c1Cl [crizotinib]
In short: as §1

[2] = compound: C[C@@H]1COCCN1C2=NC(=NC(=C2)C3(CC3)S(=O)(=O)C)C4=C5C=CNC5=CC=C4
In short: as §1

[3] = compound: C[C@H](C1=CC=C(C=C1)C(=O)NC2=C3C=CNC3=NC=C2)N
In short: as §1

duvelisib = compound: C[C@H](Nc1ncnc2nc[nH]c12)c1cc2cccc(Cl)c2c(=O)n1-c1ccccc1 [duvelisib]
In short: as §1

gandotinib = compound: Cc1cc(Nc2cc(CN3CCOCC3)c3nc(C)c(Cc4ccc(Cl)cc4F)n3n2)n[nH]1 [gandotinib]
In short: as §1

tozasertib = compound: Cc1cc(Nc2cc(N3CCN(C)CC3)nc(Sc3ccc(NC(=O)C4CC4)cc3)n2)n[nH]1 [tozasertib]
In short: as §1

[4] = compound: Cc1cc(SCc2sc(-c3ccc(C(F)(F)F)cc3)nc2C)ccc1OCC(=O)O
In short: as §1

doramapimod = compound: Cc1ccc(-n2nc(C(C)(C)C)cc2NC(=O)Nc2ccc(OCCN3CCOCC3)c3ccccc23)cc1 [doramapimod]
In short: as §1

ispinesib = compound: Cc1ccc(C(=O)N(CCCN)[C@@H](c2nc3cc(Cl)ccc3c(=O)n2Cc2ccccc2)C(C)C)cc1 [ispinesib]
In short: as §1

bafetinib = compound: Cc1ccc(NC(=O)c2ccc(CN3CC[C@H](N(C)C)C3)c(C(F)(F)F)c2)cc1Nc1nccc(-c2cncnc2)n1 [bafetinib]
In short: as §1

[5] = compound: Cc1cccc(CC(=O)N2CCc3c2ccc(-c2cn(C)c4ncnc(N)c24)c3F)n1
In short: as §1

nilotinib = compound: Cc1cn(-c2cc(NC(=O)c3ccc(C)c(Nc4nccc(-c5cccnc5)n4)c3)cc(C(F)(F)F)c2)cn1 [nilotinib]
In short: as §1

[6] = compound: Cc1nc(Nc2n[nH]c3c2CN(C(=O)N[C@H](CN(C)C)c2ccccc2)C3(C)C)c2sccc2n1
In short: as §1

dasatinib = compound: Cc1nc(Nc2ncc(C(=O)Nc3c(C)cccc3Cl)s2)cc(N2CCN(CCO)CC2)n1 [dasatinib]
In short: as §1

[7] = compound: Cc1ncc(-c2ccnc(Nc3ccc(S(C)(=O)=O)cc3)n2)n1C(C)C
In short: as §1

[8] = compound: Cn1cc(-c2ccc3c(c2)CCN3C(=O)Cc2cccc(C(F)(F)F)c2)c2c(N)ncnc21
In short: as §1

[9] = compound: Cn1cc(-c2ccc3nnc(C(F)(F)c4ccc5ncccc5c4)n3n2)cn1
In short: as §1

tipifarnib = compound: Cn1cncc1[C@@](N)(c1ccc(Cl)cc1)c1ccc2c(c1)c(-c1cccc(Cl)c1)cc(=O)n2C [tipifarnib]
In short: as §1

mubritinib = compound: FC(F)(F)c1ccc(/C=C/c2nc(COc3ccc(CCCCn4ccnn4)cc3)co2)cc1 [mubritinib]
In short: as §1

Measured: log2 fold change

SLC25A1 (UniProt P53007)
inactive: [1] 0.011 | crizotinib 0.051 | [2] 0.036 | [3] -0.051 | duvelisib -0.041 | gandotinib 0.004 | tozasertib -0.015 | [4] -0.002 | doramapimod -0.015 | ispinesib 0.045 | bafetinib -0.033 | [5] 0.042 | nilotinib -0.044 | [6] 0.029 | dasatinib 0.035 | [7] -0.013 | [8] 0.003 | [9] -0.017 | tipifarnib -0.016 | mubritinib 0.001

SLC3A2 isoform 3 (UniProt P08195)
inactive: [1] 0.008 | crizotinib 0.074 | [2] 0.047 | [3] -0.133 | duvelisib 0.026 | gandotinib 0.021 | tozasertib -0.039 | [4] -0.045 | doramapimod 0.003 | ispinesib 0.156 | bafetinib -0.017 | [5] 0.011 | nilotinib 0.048 | [6] 0 | dasatinib 0.017 | [7] 0.001 | [8] 0.038 | [9] -0.04 | tipifarnib -0.019 | mubritinib 0.016

SLC39A7 (UniProt Q92504)
inactive: [1] 0.005 | crizotinib 0.011 | [2] 0.041 | [3] 0.014 | duvelisib 0.03 | gandotinib -0.074 | tozasertib -0.007 | [4] -0.128 | doramapimod -0.018 | ispinesib -0.153 | bafetinib -0.067 | [5] -0.024 | nilotinib 0.047 | [6] -0.009 | dasatinib 0.046 | [7] -0.015 | [8] -0.08 | [9] -0.026 | tipifarnib 0.029 | mubritinib 0.013

SLC25A3 isoform 2 (UniProt Q00325)
inactive: [1] 0.013 | crizotinib 0.092 | [2] 0.028 | [3] -0.075 | duvelisib 0.02 | gandotinib 0.039 | tozasertib 0.016 | [4] -0.022 | doramapimod -0.01 | ispinesib 0.012 | bafetinib -0.024 | [5] -0.033 | nilotinib 0.01 | [6] 0.027 | dasatinib 0.04 | [7] -0.017 | [8] 0.031 | [9] 0.023 | tipifarnib 0.002 | mubritinib 0.004

SLC25A46 (UniProt Q96AG3)
inactive: [1] 0.05 | crizotinib 0.13 | [2] 0.035 | [3] 0.008 | duvelisib 0.124 | gandotinib -0.06 | tozasertib 0.05 | [4] -0.055 | doramapimod -0.046 | ispinesib -0.042 | bafetinib -0.025 | [5] -0.014 | nilotinib 0.012 | [6] 0 | dasatinib 0.098 | [7] -0.012 | [8] 0.023 | [9] -0.005 | tipifarnib 0.011 | mubritinib 0.075

SLC35F2 (UniProt Q8IXU6)
inactive: [1] 0.048 | crizotinib 0.121 | [2] -0.005 | [3] -0.206 | duvelisib 0.059 | gandotinib -0.107 | tozasertib 0.101 | [4] -0.059 | doramapimod -0.142 | ispinesib 0.091 | bafetinib -0.015 | [5] 0.043 | nilotinib 0.083 | [6] -0.004 | dasatinib 0.061 | [7] 0.061 | [8] 0.012 | [9] -0.054 | tipifarnib 0.041 | mubritinib 0.027

SLC25A38 (UniProt Q96DW6)
inactive: [1] 0.146 | crizotinib 0.105 | [2] 0.045 | [3] 0.002 | gandotinib -0.035 | [4] -0.058 | doramapimod 0.001 | ispinesib 0 | bafetinib -0.08 | [5] -0.03 | nilotinib -0.03 | [6] 0.023 | dasatinib 0.143 | [7] -0.114 | [8] 0.022 | [9] 0.019 | tipifarnib 0.043 | mubritinib 0.052

SLBP (UniProt Q14493)
inactive: [1] -0.026 | crizotinib -0.042 | [2] 0.132 | [3] 0.003 | gandotinib -0.022 | [4] 0.055 | doramapimod 0.007 | ispinesib -0.063 | bafetinib 0.11 | [5] -0.017 | nilotinib -0.05 | [6] -0.093 | dasatinib 0.031 | [8] -0.042 | [9] -0.033 | tipifarnib 0 | mubritinib -0.023
active: [7] -0.423

SLC25A21 (UniProt Q9BQT8)
inactive: [1] 0.02 | crizotinib 0.085 | [2] 0.022 | [3] -0.021 | duvelisib -0.045 | gandotinib 0.007 | tozasertib -0.007 | [4] -0.099 | doramapimod -0.019 | ispinesib -0.007 | bafetinib -0.088 | [5] -0.039 | nilotinib 0.001 | [6] -0.012 | dasatinib 0.047 | [7] -0.046 | [8] -0.008 | [9] 0.016 | tipifarnib 0.076 | mubritinib 0.035

SLC25A51 (UniProt Q9H1U9)
inactive: [1] 0.022 | crizotinib 0.033 | [2] 0.005 | [3] 0 | duvelisib 0.036 | gandotinib 0 | tozasertib 0.033 | [4] -0.008 | doramapimod 0 | ispinesib 0.004 | bafetinib -0.09 | [5] -0.079 | nilotinib 0.035 | [6] 0.007 | dasatinib 0.032 | [7] -0.005 | [8] 0.018 | [9] 0.015 | tipifarnib 0.057 | mubritinib 0.017

Retrieved one by one from above (2):
SLC25A38 (UniProt Q96DW6)
inactive: [1] 0.146 | crizotinib 0.105 | [2] 0.045 | [3] 0.002 | gandotinib -0.035 | [4] -0.058 | doramapimod 0.001 | ispinesib 0 | bafetinib -0.08 | [5] -0.03 | nilotinib -0.03 | [6] 0.023 | dasatinib 0.143 | [7] -0.114 | [8] 0.022 | [9] 0.019 | tipifarnib 0.043 | mubritinib 0.052

SLBP (UniProt Q14493)
inactive: [1] -0.026 | crizotinib -0.042 | [2] 0.132 | [3] 0.003 | gandotinib -0.022 | [4] 0.055 | doramapimod 0.007 | ispinesib -0.063 | bafetinib 0.11 | [5] -0.017 | nilotinib -0.05 | [6] -0.093 | dasatinib 0.031 | [8] -0.042 | [9] -0.033 | tipifarnib 0 | mubritinib -0.023
active: [7] -0.423

Further results

SLC40A1 (UniProt Q9NP59)
inactive: [1] 0.06 | crizotinib 0.088 | [2] 0.095 | [3] -0.085 | duvelisib 0.093 | gandotinib -0.11 | tozasertib -0.095 | [4] -0.067 | doramapimod -0.073 | ispinesib -0.025 | bafetinib -0.071 | [5] -0.066 | nilotinib 0.046 | [6] -0.001 | dasatinib 0.059 | [7] 0.1 | [8] -0.012 | [9] -0.162 | tipifarnib -0.029 | mubritinib 0.108

SLC20A2 (UniProt Q08357)
inactive: [1] 0.077 | crizotinib -0.011 | [2] 0.055 | [3] -0.041 | duvelisib 0.171 | gandotinib 0.013 | tozasertib -0.075 | [4] 0.021 | doramapimod 0.05 | ispinesib 0.034 | bafetinib -0.035 | [5] -0.111 | nilotinib 0.074 | [6] -0.048 | dasatinib -0.017 | [7] -0.019 | [8] 0.007 | [9] 0.077 | tipifarnib 0 | mubritinib 0.118

SLC12A9 (UniProt Q9BXP2)
active: crizotinib -0.315 | ispinesib -0.713
inactive: [1] -0.071 | [2] -0.022 | [3] 0.016 | gandotinib -0.16 | [4] -0.074 | doramapimod -0.012 | bafetinib -0.088 | [5] 0.023 | nilotinib -0.069 | [6] 0.05 | dasatinib 0.057 | [7] -0.066 | [8] 0.008 | [9] -0.006 | tipifarnib 0.025 | mubritinib 0.001

SLC12A4 (UniProt Q9UP95)
inactive: [1] -0.019 | crizotinib -0.07 | [2] -0.019 | [3] -0.018 | duvelisib 0.031 | gandotinib -0.035 | tozasertib -0.039 | [4] -0.057 | doramapimod 0.009 | ispinesib -0.215 | bafetinib -0.033 | [5] -0.041 | nilotinib -0.075 | [6] -0.044 | dasatinib 0.021 | [7] -0.051 | [8] 0.016 | [9] -0.022 | tipifarnib 0.032 | mubritinib 0.041

SLC5A3 (UniProt P53794)
inactive: [1] 0.051 | crizotinib 0.109 | [2] 0.086 | [3] -0.133 | duvelisib 0.05 | gandotinib 0.001 | tozasertib -0.041 | [4] -0.054 | doramapimod 0.002 | ispinesib 0.106 | bafetinib 0.039 | [5] -0.02 | nilotinib 0.07 | [6] 0.014 | dasatinib 0.057 | [7] -0.02 | [8] 0.04 | [9] -0.083 | tipifarnib 0.026 | mubritinib 0.042

SLC5A6 (UniProt Q9Y289)
inactive: [1] 0.021 | crizotinib 0.065 | [2] 0.068 | [3] -0.116 | duvelisib 0.066 | gandotinib -0.054 | tozasertib -0.054 | [4] -0.078 | doramapimod 0.032 | ispinesib 0.107 | bafetinib 0.09 | [5] -0.004 | nilotinib 0.026 | [6] -0.015 | dasatinib 0.123 | [7] -0.005 | [8] 0.112 | [9] -0.028 | tipifarnib 0.009 | mubritinib 0.025
